# Laboratory results published in the supplement of paper PMC8728848.
# This is one part of the list.
# B1: Epa2 (Candida glabrata) (protein)
# chain: MGSSHHHHHHSSGLVPRGSHMASSKDPTSFPMGCSPQVLKTQPGLAVKLYSYGHPVPGCAYNTYQYPDFPRSGYKKERKLADITGVNGRIDIDLKPNDPCRVLSGNLPSNYNYQNTLTYTNFTMILYGYFQPKVTGYHTFNLEADDLLFMNLGAGNAFDCCRAESTLDNFGNYQSYSIWGTDKATADLTVFLVSGIYYPIRLFYVNRDNNAVLDFSFSTEFNKEIIHDFTSYFFSASDEEQCPGNI
# Legend:
# Assay in all cases: glycan array binding signal (z-score within array); higher = stronger binding
# Conditions in all cases: glycan notation: IUPAC condensed, linker removed
# [1] = molecular target: Fuc(a1-2)[GalNAc(b1-3)]Gal
# How it was run: (§1)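 The Consortium for Functional Glycomics database supplied 3228 glycan arrays, of which those lacking an available protein sequence were dropped. The binding signal, a within-array Z-score, was averaged across arrays of the same protein sequence and across linkers. Negative scores can be read as non-binding.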
# Fuc(a1-3)GlcNAc = molecular target: Fuc(a1-3)GlcNAc
# How it was run: as §1
# [2] = molecular target: Fuc(a1-3)[Gal(b1-4)]Glc6S
# How it was run: as §1
# [3] = molecular target: Fuc(a1-3)[Gal(b1-4)]GlcNAc
# How it was run: as §1
# [4] = molecular target: Fuc(a1-3)[Gal(b1-4)]GlcNAc(b1-2)Man
# How it was run: as §1
# [5] = molecular target: Fuc(a1-3)[Gal(b1-4)]GlcNAc(b1-2)Man(a1-3)[Fuc(a1-3)[Gal(b1-4)]GlcNAc(b1-2)Man(a1-6)]Man(b1-4)GlcNAc(b1-4)GlcNAc
# How it was run: as §1
# [6] = molecular target: Fuc(a1-3)[Gal(b1-4)]GlcNAc(b1-2)Man(a1-3)[Fuc(a1-3)[Gal(b1-4)]GlcNAc(b1-2)Man(a1-6)]Man(b1-4)GlcNAc(b1-4)[Fuc(a1-6)]GlcNAc
# How it was run: as §1
# [7] = molecular target: Fuc(a1-3)[Gal(b1-4)]GlcNAc(b1-3)Gal(b1-3)[Fuc(a1-4)]GlcNAc
# How it was run: as §1
# [8] = molecular target: Fuc(a1-3)[Gal(b1-4)]GlcNAc(b1-3)Gal(b1-4)[Fuc(a1-3)]GlcNAc
# How it was run: as §1
# [9] = molecular target: Fuc(a1-3)[Gal(b1-4)]GlcNAc(b1-3)Gal(b1-4)[Fuc(a1-3)]GlcNAc(b1-3)Gal(b1-4)[Fuc(a1-3)]GlcNAc
# How it was run: as §1
# [10] = molecular target: Fuc(a1-3)[Gal(b1-4)]GlcNAc(b1-3)GalNAc
# How it was run: as §1
# [11] = molecular target: Fuc(a1-3)[Gal(b1-4)]GlcNAc(b1-6)GalNAc
# How it was run: as §1
# [12] = molecular target: Fuc(a1-3)[Gal(b1-4)]GlcNAc(b1-6)[Gal(b1-3)GlcNAc(b1-3)]Gal(b1-4)Glc
# How it was run: as §1
# [13] = molecular target: Fuc(a1-3)[Gal(b1-4)]GlcNAc6S
# How it was run: as §1
# [14] = molecular target: Fuc(a1-3)[Gal3S(b1-4)]Glc
# How it was run: as §1
# [15] = molecular target: Fuc(a1-3)[Gal3S(b1-4)]GlcNAc
# How it was run: as §1
# [16] = molecular target: Fuc(a1-3)[Gal3S(b1-4)]GlcNAc6S
# How it was run: as §1
# [17] = molecular target: Fuc(a1-3)[GalNAc(b1-4)]GlcNAc
# How it was run: as §1
# [18] = molecular target: Fuc(a1-3)[GalNAc(b1-4)]GlcNAc6S
# How it was run: as §1
# Fuc(a1-4)GlcNAc = molecular target: Fuc(a1-4)GlcNAc
# How it was run: as §1
# Fuc(b1-3)GlcNAc = molecular target: Fuc(b1-3)GlcNAc
# How it was run: as §1
# Gal(a1-2)Gal = molecular target: Gal(a1-2)Gal
# How it was run: as §1
# Gal(a1-3)Gal = molecular target: Gal(a1-3)Gal
# How it was run: as §1
# Gal(a1-3)Gal(b1-3)GlcNAc = molecular target: Gal(a1-3)Gal(b1-3)GlcNAc
# How it was run: as §1
# [19] = molecular target: Gal(a1-3)Gal(b1-3)GlcNAc(b1-2)Man
# How it was run: as §1
# [20] = molecular target: Gal(a1-3)Gal(b1-3)GlcNAc(b1-2)Man(a1-3)[Gal(a1-3)Gal(b1-3)GlcNAc(b1-2)Man(a1-6)]Man(b1-4)GlcNAc(b1-4)GlcNAc
# How it was run: as §1
# [21] = molecular target: Gal(a1-3)Gal(b1-3)GlcNAc(b1-3)GalNAc
# How it was run: as §1
# [22] = molecular target: Gal(a1-3)Gal(b1-3)GlcNAc(b1-6)GalNAc
# How it was run: as §1
# [23] = molecular target: Gal(a1-3)Gal(b1-3)[Fuc(a1-4)]GlcNAc(b1-2)Man(a1-3)[Gal(a1-3)Gal(b1-3)[Fuc(a1-4)]GlcNAc(b1-2)Man(a1-6)]Man(b1-4)GlcNAc(b1-4)GlcNAc
# How it was run: as §1
# Gal(a1-3)Gal(b1-4)Glc = molecular target: Gal(a1-3)Gal(b1-4)Glc
# How it was run: as §1
binder,measurement,setting,value
B1,glycan array binding signal (z-score),[1],-0.637
same,glycan array binding signal (z-score),Fuc(a1-3)GlcNAc,0.379
same,glycan array binding signal (z-score),[2],0.453
same,glycan array binding signal (z-score),[3],-0.543
same,glycan array binding signal (z-score),[4],-1.15
same,glycan array binding signal (z-score),[5],-0.156
same,glycan array binding signal (z-score),[6],-0.153
same,glycan array binding signal (z-score),[7],-0.341
same,glycan array binding signal (z-score),[8],-0.109
same,glycan array binding signal (z-score),[9],-1.39
same,glycan array binding signal (z-score),[10],0.659
same,glycan array binding signal (z-score),[11],2.23
same,glycan array binding signal (z-score),[12],-0.228
same,glycan array binding signal (z-score),[13],1.09
same,glycan array binding signal (z-score),[14],0.905
same,glycan array binding signal (z-score),[15],-0.168
same,glycan array binding signal (z-score),[16],-0.922
same,glycan array binding signal (z-score),[17],0.253
same,glycan array binding signal (z-score),[18],-0.523
same,glycan array binding signal (z-score),Fuc(a1-4)GlcNAc,-0.255
same,glycan array binding signal (z-score),Fuc(b1-3)GlcNAc,0.001
same,glycan array binding signal (z-score),Gal(a1-2)Gal,-1.68
same,glycan array binding signal (z-score),Gal(a1-3)Gal,0.044
same,glycan array binding signal (z-score),Gal(a1-3)Gal(b1-3)GlcNAc,-0.18
same,glycan array binding signal (z-score),[19],0.508
same,glycan array binding signal (z-score),[20],1.71
same,glycan array binding signal (z-score),[21],-0.007
same,glycan array binding signal (z-score),[22],0.247
same,glycan array binding signal (z-score),[23],-0.479
same,glycan array binding signal (z-score),Gal(a1-3)Gal(b1-4)Glc,-0.079

# Retrieved one by one from the entries so far:
binder,measurement,setting,value
B1,glycan array binding signal (z-score),[4],-1.15
same,glycan array binding signal (z-score),[5],-0.156
